The list shows only some results of the screen, not a fair sample: it gathers tests that were run many times, whatever their T/C, doses with no T/C, and many T/C values between a quarter and a half above the control. Further doses and runs are listed elsewhere. T/C: endpoint of the treated group in % of that of the vehicle group. Some doses have a count of surviving animals in place of a T/C: the source files T/C as zero there, which appears to mark a toxic dose or a test without result, not a measured value. Some doses without a T/C left all or most animals alive at the check, yet need not have been tolerated: survival well below the control is almost never listed, so the zero probably covers shortened survival too. Counts of survivors are from the toxicity check (mostly the fifth day) where no day follows; animals may have died later. Schedule codes are those of the source, taken here to give the interval after Q, in days (D) or hours (H), and the number of doses after X. Some entries were tested several times; the results are listed from low to high. For survival time, this PubChem deposit counts one and a half times the control or more as active, and values a quarter to a half above the control carry no call in these data; other NCI protocols may use other cut-offs. Signs of the kind (2×) give the number of equal values in this list. Some T/C values are followed by the survivors on the day toxicity was checked, most often the fifth; where none is given, no animal had died by that day.
Test system: P388 leukemia ip, CD2F1 mice, survival T/C
Assay: NCI In Vivo Anticancer Drug Screen. Data for tumor model P388 Leukemia (intraperitoneal) in CD2F1 (CDF1) mice
Details: T/C endpoint: median survival time, higher T/C = longer survival
[1] = dose: 200.0 mg/kg/injection, schedule: Q01DX005 (ip), vehicle: saline

Structure (SMILES): CCN(CC)CCCC(C)Nc1nccc2cccc(Cl)c12 (configuration not stated)
- survivor count [1]: 0 of 5

Structure (SMILES): Cn1ccn(CCCCCCn2ccn(C)c2=S)c1=S
- survivor count (dose: 6.25 mg/kg/injection, schedule: Q01DX009 (ip), vehicle: suspension in saline): 6 of 6
- survivor count (dose: 12.5 mg/kg/injection, schedule: Q01DX009 (ip), vehicle: saline): 2 of 6
- survivor count (dose: 25.0 mg/kg/injection, schedule: Q01DX009 (ip), vehicle: suspension in saline): 0 of 6
- survivor count (dose: 50.0 mg/kg/injection, schedule: Q01DX009 (ip), vehicle: suspension in saline): 0 of 6
- survivor count (dose: 100.0 mg/kg/injection, schedule: Q01DX009 (ip), vehicle: suspension in saline): 0 of 6
- survivor count (dose: 200.0 mg/kg/injection, schedule: Q01DX009 (ip), vehicle: suspension in saline): 0 of 6

Structure (SMILES): N=C1CCCS1
- T/C (dose: 50.0 mg/kg/injection, schedule: Q01DX005 (ip), vehicle: saline): 125 % of control (2×)
- T/C (dose: 100.0 mg/kg/injection, schedule: Q01DX005 (ip), vehicle: saline): 147 % of control
- survivor count [1]: 0 of 5 and 1 of 5

Structure (SMILES): CC(C)(O)C1OCC(C2CCC3(C)C4=CCC5C(C)(C)C(O)CCC5(C)C4CCC23C)CC1O (configuration not stated)
- T/C (dose: 1.25 mg/kg/injection, schedule: Q01DX009 (ip), vehicle: alcohol): 130 % of control
- T/C (dose: 2.5 mg/kg/injection, schedule: Q01DX009 (ip), vehicle: alcohol): 127 % of control
- T/C (dose: 5.0 mg/kg/injection, schedule: Q01DX009 (ip), vehicle: alcohol): 136 % of control
- T/C (dose: 10.0 mg/kg/injection, schedule: Q01DX009 (ip), vehicle: alcohol): 130 % of control

Structure (SMILES): CC1C=NNC1=O (configuration not stated)
- T/C (dose: 250.0 mg/kg/injection, schedule: Q01DX009 (ip), vehicle: saline with Tween-80): 126 % of control
- T/C (dose: 500.0 mg/kg/injection, schedule: Q01DX009 (ip), vehicle: saline with Tween-80): 140 % of control [5 of 6 alive]

Structure (SMILES): CCCCCCCCCCCCCCC[N+]1([O-])CCCCC1
- survivor count (dose: 100.0 mg/kg/injection, schedule: Q01DX009 (ip), vehicle: saline): 3 of 6
- survivor count (dose: 200.0 mg/kg/injection, schedule: Q01DX009 (ip), vehicle: saline): 0 of 6

Structure (SMILES): O=C(c1ccc(-c2ccccc2)cc1)C(Br)C(Br)c1ccccc1 (configuration not stated)
- survivor count (dose: 50.0 mg/kg/injection, schedule: Q01DX009 (ip), vehicle: other): 6 of 6

Structure (SMILES): COc1ccc2c3c(cccc13)-c1ccccc1C2=O
- survivor count (dose: 50.0 mg/kg/injection, schedule: Q01DX005 (ip), vehicle: saline with Tween-80): 5 of 5
- survivor count (dose: 100.0 mg/kg/injection, schedule: Q01DX005 (ip), vehicle: saline with Tween-80): 5 of 5
- survivor count (dose: 200.0 mg/kg/injection, schedule: Q01DX005 (ip), vehicle: saline with Tween-80): 5 of 5

Structure (SMILES): CN(C)CCCNc1c2ccccc2nc2cccc([N+](=O)[O-])c12
- T/C (dose: 0.03 mg/kg/injection, schedule: Q01DX009 (ip), vehicle: water): 126 % of control
- survivor count (dose: 0.25 mg/kg/injection, schedule: Q01DX009 (ip), vehicle: water): 6 of 6
- survivor count (dose: 0.5 mg/kg/injection, schedule: Q01DX009 (ip), vehicle: water): 5 of 6 and 6 of 6
- survivor count (dose: 1.0 mg/kg/injection, schedule: Q01DX009 (ip), vehicle: water): 3 of 6
- survivor count (dose: 500.0 micrograms/kg/injection, schedule: Q01DX009 (ip), vehicle: saline): 5 of 6
- survivor count (dose: 1000.0 micrograms/kg/injection, schedule: Q01DX009 (ip), vehicle: saline): 4 of 6
- survivor count (dose: 2000.0 micrograms/kg/injection, schedule: Q01DX009 (ip), vehicle: saline): 2 of 6
- survivor count (dose: 4000.0 micrograms/kg/injection, schedule: Q01DX009 (ip), vehicle: saline): 0 of 6

Structure (SMILES): COc1cc2c(c(OC)c1OC)-c1cc3c(cc1CC1COC(=O)C1C2)OCO3 (configuration not stated)
- survivor count (dose: 400.0 mg/kg/injection, schedule: Q04DX002 (ip), vehicle: saline with Tween-80): 6 of 6

Structure (SMILES): CCC1(c2ccccc2)SC(=O)NC1=O (configuration not stated)
- survivor count (dose: 400.0 mg/kg/injection, schedule: Q01DX009 (ip), vehicle: saline with Tween-80): 3 of 6
